Source: patent US20240131047A1, “SMALL MOLECULE INHIBITORS OF CD38 AS IMMUNOSUPPRESSANTS” (OHIO STATE INNOVATION FOUNDATION, priority 2021, published 2024)
For at least one compound, name, drawing or mass did not settle the structure.

System: Macrophages (THP-1 cell line, M1 inflammatory type)
Test: TNF release of macrophages exposed to hypoxia and re-oxygenation
Format: cell-based
Conditions: compared with controls

| Structure (SMILES) | TNF release |
| --- | --- |
| Oc1cc(O)c2ccc(-c3ccc(O)c(O)c3)[o+]c2c1 [Luteolinidin] | effect was specific to the 78C |
| OC[C@H]1O[C@@H](Oc2cc3c(O)cc(O)cc3[o+]c2-c2ccc(O)c(O)c2)[C@H](O)[C@@H](O)[C@@H]1O [Kuromanin] | effect was specific to the 78C |
